These are yes or no findings as the source states them, for the method shown. For some assays here: Binding seen in cells or lysates may run through a third protein. Some entries that bind do so weakly or less than the wild type.
Assays:
[1] = biological target: T1, human NGL-1 expressed on COS7 cells (human) (UniProt Q9HCJ2); experiment: cell surface binding assay on transfected COS7 cells
T1 sequence: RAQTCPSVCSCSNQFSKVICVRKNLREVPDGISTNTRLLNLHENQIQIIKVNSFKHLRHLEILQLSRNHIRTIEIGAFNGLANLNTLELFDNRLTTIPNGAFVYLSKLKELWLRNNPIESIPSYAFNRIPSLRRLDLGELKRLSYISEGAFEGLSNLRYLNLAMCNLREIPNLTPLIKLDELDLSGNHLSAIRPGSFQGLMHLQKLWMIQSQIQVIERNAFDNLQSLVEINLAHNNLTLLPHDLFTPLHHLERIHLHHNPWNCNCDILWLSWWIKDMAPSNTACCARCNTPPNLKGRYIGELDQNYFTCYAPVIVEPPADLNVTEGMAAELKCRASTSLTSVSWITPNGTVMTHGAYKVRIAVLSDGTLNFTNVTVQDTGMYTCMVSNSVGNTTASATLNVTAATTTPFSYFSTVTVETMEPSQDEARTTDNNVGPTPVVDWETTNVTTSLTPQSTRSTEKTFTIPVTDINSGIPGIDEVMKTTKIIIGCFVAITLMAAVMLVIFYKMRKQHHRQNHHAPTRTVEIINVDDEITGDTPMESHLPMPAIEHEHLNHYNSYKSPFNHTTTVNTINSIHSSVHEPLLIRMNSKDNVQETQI

The chains behind the UniProt entries cited, without tags or fusion partners. Where a name states a change or a piece, a line headed by the entry shows the natural chain unless it says otherwise. A line that says so, or that is headed by a name, gives the form on record, which may keep a tag or linker. Residues count along the entry.
UniProt P14210, residues 32-728: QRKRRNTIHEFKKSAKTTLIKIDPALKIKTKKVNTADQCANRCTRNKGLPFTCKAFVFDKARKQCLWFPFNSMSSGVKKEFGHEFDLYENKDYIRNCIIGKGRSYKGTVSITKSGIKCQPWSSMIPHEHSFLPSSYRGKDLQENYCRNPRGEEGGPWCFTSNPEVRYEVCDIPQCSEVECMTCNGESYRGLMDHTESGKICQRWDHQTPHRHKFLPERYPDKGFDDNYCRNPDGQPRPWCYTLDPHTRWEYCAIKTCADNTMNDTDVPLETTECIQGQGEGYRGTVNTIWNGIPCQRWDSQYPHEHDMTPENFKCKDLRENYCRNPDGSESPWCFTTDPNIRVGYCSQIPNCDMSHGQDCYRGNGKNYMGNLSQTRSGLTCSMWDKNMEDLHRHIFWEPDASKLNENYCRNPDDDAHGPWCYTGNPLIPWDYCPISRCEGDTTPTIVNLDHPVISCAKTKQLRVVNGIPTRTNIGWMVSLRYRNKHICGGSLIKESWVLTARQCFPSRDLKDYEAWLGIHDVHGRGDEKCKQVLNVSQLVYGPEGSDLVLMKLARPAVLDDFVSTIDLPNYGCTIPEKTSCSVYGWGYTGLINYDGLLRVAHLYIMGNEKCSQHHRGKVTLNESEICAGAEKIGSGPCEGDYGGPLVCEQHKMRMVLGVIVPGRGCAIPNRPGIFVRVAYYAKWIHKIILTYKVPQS
human Netrin-G1-Fc (Q9Y2I2, form named): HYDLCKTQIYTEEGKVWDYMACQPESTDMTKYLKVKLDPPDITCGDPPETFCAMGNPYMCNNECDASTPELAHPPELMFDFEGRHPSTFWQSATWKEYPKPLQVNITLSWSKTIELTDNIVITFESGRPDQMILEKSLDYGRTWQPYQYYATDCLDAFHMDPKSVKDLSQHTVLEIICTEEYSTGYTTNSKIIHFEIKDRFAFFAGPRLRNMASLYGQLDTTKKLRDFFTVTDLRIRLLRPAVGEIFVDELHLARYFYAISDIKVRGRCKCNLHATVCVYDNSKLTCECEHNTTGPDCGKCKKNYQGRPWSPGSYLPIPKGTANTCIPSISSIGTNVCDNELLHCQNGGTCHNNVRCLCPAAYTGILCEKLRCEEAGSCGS
UniProt P08581, residues 25-932: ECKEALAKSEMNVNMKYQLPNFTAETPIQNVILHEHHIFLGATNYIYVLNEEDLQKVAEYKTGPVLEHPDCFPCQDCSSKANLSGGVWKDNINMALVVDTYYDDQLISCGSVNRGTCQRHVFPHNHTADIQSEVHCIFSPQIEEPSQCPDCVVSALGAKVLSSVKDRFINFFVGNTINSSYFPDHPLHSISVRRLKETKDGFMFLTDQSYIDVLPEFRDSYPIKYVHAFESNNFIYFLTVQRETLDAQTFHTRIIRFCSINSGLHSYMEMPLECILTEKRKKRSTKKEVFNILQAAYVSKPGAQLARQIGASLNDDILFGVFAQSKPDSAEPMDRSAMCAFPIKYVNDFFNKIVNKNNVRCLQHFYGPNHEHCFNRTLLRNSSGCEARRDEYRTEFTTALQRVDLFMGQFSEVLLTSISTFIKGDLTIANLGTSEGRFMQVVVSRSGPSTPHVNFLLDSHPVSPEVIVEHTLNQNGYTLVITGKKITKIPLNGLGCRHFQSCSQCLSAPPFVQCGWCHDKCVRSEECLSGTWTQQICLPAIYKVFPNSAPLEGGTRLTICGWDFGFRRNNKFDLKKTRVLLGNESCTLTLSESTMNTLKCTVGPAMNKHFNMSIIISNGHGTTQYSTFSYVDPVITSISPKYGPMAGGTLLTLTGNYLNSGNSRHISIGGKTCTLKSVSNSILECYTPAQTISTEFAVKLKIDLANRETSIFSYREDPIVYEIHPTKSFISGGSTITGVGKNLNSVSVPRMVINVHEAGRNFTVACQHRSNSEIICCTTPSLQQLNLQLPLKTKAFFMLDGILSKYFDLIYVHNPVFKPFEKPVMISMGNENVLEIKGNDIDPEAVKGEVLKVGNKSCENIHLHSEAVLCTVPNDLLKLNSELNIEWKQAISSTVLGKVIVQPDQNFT

[2] = biological target: human HGF protein (human) (UniProt P14210); experiment: solution binding assay, protein A bead pull-down, blot

binding [1]	binding [2]	Substance
binds		human Netrin-G1-Fc (from UniProt Q9Y2I2 29-409) (Fc fusion)
	binds	recombinant human cMet-Fc fusion protein (R&D Systems) (from UniProt P08581 25-932)
